PubChem BioAssay AID1508588, Peter MacCallum Cancer Centre, 2020
In all, the deposit lists about 18,000 reagents; this is a part drawn at random. Of all reagents, 790 (4.4%) were called active. 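Calls rest on a combination of fold-change classes in drug and vehicle arms, not all shown here.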

- Assay: 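Knock-downs boosting vemurafenib effects on melanoma cell growth or lactate release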 (primary screen)
- System: human WM266.4 melanoma cells (BRAF V600 mutant)
- Reagent: siRNA pool against human genes, 40 nM
- Time to read-out: 96 h from transfection to read-out
- Challenge: vemurafenib 300 nM (about IC25), added 48 h after transfection, for 48 h; comparison arm got DMSO vehicle only
- Read-out: 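Cell gain (DAPI nuclei at end minus before drug, mean of two replicates) and medium lactate by absorbance per cell, both as ratio to non-targeting siRNA, also grouped into fold-change classes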
- Direction: cell gain with vemurafenib: higher = more cell gain than with non-targeting siRNA; lactate per cell with vemurafenib: higher = more lactate made per cell
- Call rule: 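a knock-down counts as enhancing when its fold-change classes with vehicle and with vemurafenib, taken together, show a stronger drug effect on cell gain or lactate per cell; exact class pairs not stated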
- Calls: active = enhances vemurafenib effect; inactive = no enhancement seen

JTB (GeneID 10899) [SID152150360] → cell gain with vemurafenib = 0.68; lactate per cell with vemurafenib = 0.92; Call = inactive
ACTMAP (GeneID 284325) [SID135624654] → cell gain with vemurafenib = 0.59; lactate per cell with vemurafenib = 1.17; Call = inactive
FGA (GeneID 2243) [SID152155887] → cell gain with vemurafenib = 0.83; lactate per cell with vemurafenib = 0.78; Call = inactive
TBX18 (GeneID 9096) [SID135624482] → cell gain with vemurafenib = 0.74; lactate per cell with vemurafenib = 0.74; Call = inactive
LACTB (GeneID 114294) [SID135621106] → cell gain with vemurafenib = 0.81; lactate per cell with vemurafenib = 0.73; Call = inactive
TNFRSF10B (GeneID 8795) [SID134310479] → cell gain with vemurafenib = 0.89; lactate per cell with vemurafenib = 1.06; Call = inactive
SH3BGR (GeneID 6450) [SID135623886] → cell gain with vemurafenib = 0.43; lactate per cell with vemurafenib = 0.27; Call = inactive
RDH5 (GeneID 5959) [SID152155593] → cell gain with vemurafenib = 0.7; lactate per cell with vemurafenib = 0.86; Call = inactive
DYNC2H1 (GeneID 79659) [SID135624570] → cell gain with vemurafenib = 0.34; lactate per cell with vemurafenib = 1.13; Call = inactive
FCF1 (GeneID 51077) [SID152148300] → cell gain with vemurafenib = 0.24; lactate per cell with vemurafenib = 1.06; Call = inactive
ZAR1 (GeneID 326340) [SID135623526] → cell gain with vemurafenib = 0.49; lactate per cell with vemurafenib = 1.02; Call = inactive
SPMIP10 (GeneID 389320) [SID135625080] → cell gain with vemurafenib = 0.41; lactate per cell with vemurafenib = 1.81; Call = inactive
ARHGAP26 (GeneID 23092) [SID152152855] → cell gain with vemurafenib = 0.46; lactate per cell with vemurafenib = 0.96; Call = inactive
ACP2 (GeneID 53) [SID134313091] → cell gain with vemurafenib = 0.47; lactate per cell with vemurafenib = 0.49; Call = active
SH2D6 (GeneID 284948) [SID134326903] → cell gain with vemurafenib = 1.12; lactate per cell with vemurafenib = 0.9; Call = inactive
PPARG (GeneID 5468) [SID152151402] → cell gain with vemurafenib = 0.36; lactate per cell with vemurafenib = 1.14; Call = inactive
BHLHA15 (GeneID 168620) [SID152150125] → cell gain with vemurafenib = 0.86; lactate per cell with vemurafenib = 0.88; Call = inactive
PIH1D2 (GeneID 120379) [SID152152041] → cell gain with vemurafenib = 0.04; lactate per cell with vemurafenib = 2.38; Call = inactive
RRP7A (GeneID 27341) [SID135623208] → cell gain with vemurafenib = 0.64; lactate per cell with vemurafenib = 1.07; Call = inactive
ABCD3 (GeneID 5825) [SID152155437] → cell gain with vemurafenib = 0.95; lactate per cell with vemurafenib = 0.44; Call = inactive
VCY1B (GeneID 353513) [SID135625154] → cell gain with vemurafenib = 0.66; lactate per cell with vemurafenib = 1.42; Call = inactive
EVC2 (GeneID 132884) [SID152148256] → cell gain with vemurafenib = -0.04; lactate per cell with vemurafenib = 1.82; Call = inactive
POP1 (GeneID 10940) [SID134318325] → cell gain with vemurafenib = 0.45; lactate per cell with vemurafenib = 1.86; Call = inactive
LDOC1 (GeneID 23641) [SID152150272] → cell gain with vemurafenib = 0.52; lactate per cell with vemurafenib = 0.92; Call = inactive
HEXIM2 (GeneID 124790) [SID134320214] → cell gain with vemurafenib = 0.52; lactate per cell with vemurafenib = 1.29; Call = inactive
EIF3H (GeneID 8667) [SID152153620] → cell gain with vemurafenib = 0.45; lactate per cell with vemurafenib = 0.56; Call = inactive
ALG12 (GeneID 79087) [SID135624638] → cell gain with vemurafenib = 0.37; lactate per cell with vemurafenib = 1.86; Call = inactive
MYC (GeneID 4609) [SID135620654] → cell gain with vemurafenib = 0.27; lactate per cell with vemurafenib = 0.44; Call = inactive
COA1 (GeneID 55744) [SID135623946] → cell gain with vemurafenib = 0.88; lactate per cell with vemurafenib = 0.5; Call = inactive
PRPH2 (GeneID 5961) [SID135622054] → cell gain with vemurafenib = 0.05; lactate per cell with vemurafenib = 2.91; Call = inactive
NSFL1C (GeneID 55968) [SID134321172] → cell gain with vemurafenib = 1.01; lactate per cell with vemurafenib = 0.28; Call = inactive
HAS1 (GeneID 3036) [SID134314391] → cell gain with vemurafenib = 0.13; lactate per cell with vemurafenib = 2.24; Call = inactive
RPS28 (GeneID 6234) [SID152153113] → cell gain with vemurafenib = -0.03; lactate per cell with vemurafenib = 1.48; Call = inactive
TMED5 (GeneID 50999) [SID152156333] → cell gain with vemurafenib = 0.19; lactate per cell with vemurafenib = 1.85; Call = inactive
TPSAB1 (GeneID 7177) [SID135621131] → cell gain with vemurafenib = 1.06; lactate per cell with vemurafenib = 1; Call = inactive
LURAP1 (GeneID 541468) [SID135625393] → cell gain with vemurafenib = 1.18; lactate per cell with vemurafenib = 0.4; Call = inactive
SCCPDH (GeneID 51097) [SID135624094] → cell gain with vemurafenib = 0.56; lactate per cell with vemurafenib = 1.41; Call = inactive
SFRP2 (GeneID 6423) [SID152155514] → cell gain with vemurafenib = 0.27; lactate per cell with vemurafenib = 0.28; Call = inactive
EIF2D (GeneID 1939) [SID152151178] → cell gain with vemurafenib = 0.8; lactate per cell with vemurafenib = 0.5; Call = inactive
OLIG2 (GeneID 10215) [SID152153418] → cell gain with vemurafenib = 1; lactate per cell with vemurafenib = 0.74; Call = inactive
GLS2 (GeneID 27165) [SID134316766] → cell gain with vemurafenib = 0.58; lactate per cell with vemurafenib = 0.88; Call = inactive
TRIAP1 (GeneID 51499) [SID134324450] → cell gain with vemurafenib = 1.05; lactate per cell with vemurafenib = 1.16; Call = inactive
C14orf119 (GeneID 55017) [SID134324893] → cell gain with vemurafenib = 0.66; lactate per cell with vemurafenib = 0.66; Call = inactive
GPR152 (GeneID 390212) [SID134329477] → cell gain with vemurafenib = 0.01; lactate per cell with vemurafenib = 1.18; Call = inactive
EFCAB3 (GeneID 146779) [SID152152830] → cell gain with vemurafenib = 1.23; lactate per cell with vemurafenib = 0.58; Call = inactive
PCDHGC5 (GeneID 56097) [SID134317516] → cell gain with vemurafenib = 0.16; lactate per cell with vemurafenib = 1.48; Call = active
RMND5A (GeneID 64795) [SID134319480] → cell gain with vemurafenib = 0.24; lactate per cell with vemurafenib = 1.18; Call = inactive
CRADD (GeneID 8738) [SID152148694] → cell gain with vemurafenib = 0.2; lactate per cell with vemurafenib = 0.85; Call = inactive
CRYGD (GeneID 1421) [SID152154975] → cell gain with vemurafenib = 0.84; lactate per cell with vemurafenib = 0.72; Call = inactive
CTCFL (GeneID 140690) [SID134310096] → cell gain with vemurafenib = 0.68; lactate per cell with vemurafenib = 0.57; Call = inactive
SH3BGRL3 (GeneID 83442) [SID135622804] → cell gain with vemurafenib = 0.32; lactate per cell with vemurafenib = 1.2; Call = inactive
CHI3L1 (GeneID 1116) [SID152152374] → cell gain with vemurafenib = 0.8; lactate per cell with vemurafenib = 0.34; Call = active

Reagents listed so far called active (3):
ACP2 (GeneID 53) [SID134313091] → cell gain with vemurafenib = 0.47; lactate per cell with vemurafenib = 0.49; Call = active
PCDHGC5 (GeneID 56097) [SID134317516] → cell gain with vemurafenib = 0.16; lactate per cell with vemurafenib = 1.48; Call = active
CHI3L1 (GeneID 1116) [SID152152374] → cell gain with vemurafenib = 0.8; lactate per cell with vemurafenib = 0.34; Call = active
